For two substances, binding results are on record in publication PMC10654515.

The chains behind the UniProt entries cited, without tags or fusion partners. Where a name states a change or a piece, a line headed by the entry shows the natural chain unless it says otherwise.
UniProt P11308: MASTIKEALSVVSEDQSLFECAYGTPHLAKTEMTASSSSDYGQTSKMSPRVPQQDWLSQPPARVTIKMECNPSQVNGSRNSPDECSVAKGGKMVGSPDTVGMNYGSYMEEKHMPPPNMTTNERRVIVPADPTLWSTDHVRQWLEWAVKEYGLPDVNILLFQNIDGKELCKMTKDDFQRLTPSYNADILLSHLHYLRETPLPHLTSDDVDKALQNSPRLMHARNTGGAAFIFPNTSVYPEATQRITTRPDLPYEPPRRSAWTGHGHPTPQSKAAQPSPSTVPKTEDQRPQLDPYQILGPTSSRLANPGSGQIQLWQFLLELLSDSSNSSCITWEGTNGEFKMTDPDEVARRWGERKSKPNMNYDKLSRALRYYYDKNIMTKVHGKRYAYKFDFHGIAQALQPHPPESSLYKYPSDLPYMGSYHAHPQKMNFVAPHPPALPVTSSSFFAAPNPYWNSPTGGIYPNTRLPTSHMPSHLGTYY
UniProt Q7KZF4: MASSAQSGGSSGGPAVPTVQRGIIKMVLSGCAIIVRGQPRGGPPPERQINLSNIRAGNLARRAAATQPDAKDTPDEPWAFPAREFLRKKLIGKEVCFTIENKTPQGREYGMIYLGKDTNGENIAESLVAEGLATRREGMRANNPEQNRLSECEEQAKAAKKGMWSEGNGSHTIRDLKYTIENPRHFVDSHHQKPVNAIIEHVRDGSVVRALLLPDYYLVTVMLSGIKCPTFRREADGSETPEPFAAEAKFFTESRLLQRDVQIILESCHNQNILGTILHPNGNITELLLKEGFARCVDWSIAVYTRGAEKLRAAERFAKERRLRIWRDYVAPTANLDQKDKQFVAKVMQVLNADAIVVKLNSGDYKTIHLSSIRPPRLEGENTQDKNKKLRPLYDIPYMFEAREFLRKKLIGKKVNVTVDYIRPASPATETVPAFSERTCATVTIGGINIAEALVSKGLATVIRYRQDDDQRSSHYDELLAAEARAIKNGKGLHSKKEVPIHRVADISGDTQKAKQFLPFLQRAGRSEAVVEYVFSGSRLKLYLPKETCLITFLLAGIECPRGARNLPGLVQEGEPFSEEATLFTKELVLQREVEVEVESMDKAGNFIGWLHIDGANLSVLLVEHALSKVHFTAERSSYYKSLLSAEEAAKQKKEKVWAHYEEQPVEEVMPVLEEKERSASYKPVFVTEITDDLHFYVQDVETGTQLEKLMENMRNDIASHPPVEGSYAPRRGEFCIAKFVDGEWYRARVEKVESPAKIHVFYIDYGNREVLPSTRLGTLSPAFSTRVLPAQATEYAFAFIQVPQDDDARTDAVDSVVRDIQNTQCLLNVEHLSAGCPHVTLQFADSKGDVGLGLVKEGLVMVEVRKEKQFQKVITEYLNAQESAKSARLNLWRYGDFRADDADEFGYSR

In this test the target is HA-ERG (N-terminal HA-tagged ΔN-ERG) (human) (UniProt P11308). The experiment in a line: co-IP; co-expressed tagged proteins in HEK293(T) cells; anti-HA agarose beads, 4 h at 4 °C; IP buffer 50 mM Tris-HCl pH 7.5, 1% Triton X-100, 50 mM NaCl, 0.1 mM EDTA; Western blot.

Results are given in words; binding and its absence hold for the method and conditions named. In cells and extracts the contact can be indirect. Binding can be weak; no strength is given.

“full-length SND1, epitope-tagged (SND1-V5) (from UniProt Q7KZF4 1-910)”: the binding entry is “binds”. On to “TD domain SND1 (V5-tagged) (from UniProt Q7KZF4 729-787) (domain or fragment)”, for which the binding result is on record as “binds”.
